Measurements reported in paper PMC10378328.
Results are given in words; binding and its absence hold for the method and conditions named. For some assays here: Binding seen in cells or lysates may run through a third protein. Some entries that bind do so weakly or less than the wild type.

Amino acid sequences for entries named in this document (tags omitted). A change or cut given only in a name is not applied to a line headed by its entry. Chains listed by the source or under a name are the forms on record and can include a tag or linker. Residues count along the entry.
UniProt P04233: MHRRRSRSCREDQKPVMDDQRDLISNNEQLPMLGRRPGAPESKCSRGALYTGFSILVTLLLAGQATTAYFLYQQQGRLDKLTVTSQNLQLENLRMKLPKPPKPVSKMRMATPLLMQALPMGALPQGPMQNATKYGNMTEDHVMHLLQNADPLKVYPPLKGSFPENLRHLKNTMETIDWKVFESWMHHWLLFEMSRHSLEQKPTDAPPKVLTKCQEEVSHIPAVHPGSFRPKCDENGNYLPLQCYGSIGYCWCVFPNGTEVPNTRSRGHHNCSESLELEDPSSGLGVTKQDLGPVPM
recombinant human soluble CD74 ectodomain fragment (sCD74), His-tagged: residues 73-296 of P04233
UniProt P01033, residues 24-207: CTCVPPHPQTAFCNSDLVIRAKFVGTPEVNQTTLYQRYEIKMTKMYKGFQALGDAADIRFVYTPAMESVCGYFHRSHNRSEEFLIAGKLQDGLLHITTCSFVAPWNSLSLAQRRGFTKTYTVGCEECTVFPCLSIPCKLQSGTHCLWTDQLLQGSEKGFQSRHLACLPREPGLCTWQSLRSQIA

Columns and labels:
[1] = target: recombinant human soluble CD74 ectodomain fragment (sCD74), His-tagged (human) (UniProt P04233); assay: pull-down; His-tag Dynabeads; recombinant human His-tagged sCD74 (500 ng) and recombinant human TIMP-1 (500 ng); Western blot with anti-His and anti-TIMP-1; both purified
[2] = target: N-terminal FLAG-tagged human CD74 (human) (UniProt P04233); assay: co-IP; lysate of HEK293 cells transfected with FLAG-CD74 incubated with anti-FLAG antibody, then 500 ng recombinant TIMP-1 overnight at 4 °C; protein G magnetic beads; lysis buffer with 1% Triton-X 100; Western blot; only the binder purified

binding [1]: binds | binding [2]: binds
Substance: recombinant human TIMP-1 (tissue inhibitor of metalloproteinases-1) (from UniProt P01033 24-207)
